# The list shows a part of the results. Many values rest on one well or one pass, so single values are uncertain.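 Imaging used 1,536-well plates; nuclei positive for cleaved PARP by antibody were divided by total DNA-stained nuclei to yield the apoptosis fraction. Doses for screening kept most cells viable, and cell lines differ markedly in resting and induced cleaved-PARP levels.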
# Columns and labels:
# Assay in all cases: cleaved PARP positive nuclei fraction relative to DMSO control; melanoma cells; higher = more apoptosis
# Conditions in all cases: library dose: low library concentration; 72 h
# [1] = test system: CBRC034 (line from a melanoma biopsy)
# [2] = test system: COLO792
# [3] = test system: COLO800
# [4] = test system: COLO829
# [5] = test system: G361
# [6] = test system: IPC-298
# [7] = test system: IST-MEL1
# [8] = test system: LB2518-MEL
# [9] = test system: LOXIMVI
# [10] = test system: MEL-HO
Structure (SMILES),cleaved PARP positive nuclei fraction [1],cleaved PARP positive nuclei fraction [2],cleaved PARP positive nuclei fraction [3],cleaved PARP positive nuclei fraction [4],cleaved PARP positive nuclei fraction [5],cleaved PARP positive nuclei fraction [6],cleaved PARP positive nuclei fraction [7],cleaved PARP positive nuclei fraction [8],cleaved PARP positive nuclei fraction [9],cleaved PARP positive nuclei fraction [10]
"COc1ccc(C2=N[C@@H](c3ccc(Cl)cc3)[C@@H](c3ccc(Cl)cc3)N2C(=O)N2CCNC(=O)C2)c(OC(C)C)c1 [Nutlin-3] + C[C@@H](Oc1cc(-c2cnn(C3CCNCC3)c2)cnc1N)c1c(Cl)ccc(F)c1Cl [Crizotinib] (first compound 0.1 µM, partner dose 0.2 µM)",83.1%,80.6%,95.3%,103%,94.6%,40.4%,90.9%,113%,80.9%,153%
"CCN(CC)CCNC(=O)c1c(C)[nH]c(/C=C2\C(=O)Nc3ccc(F)cc32)c1C [sunitinib] + CN(c1ncccc1CNc1nc(Nc2ccc3c(c2)CC(=O)N3)ncc1C(F)(F)F)S(C)(=O)=O [PF562271] (first compound 0.4 µM, partner dose 0.08 µM)",72.8%,58.1%,86.1%,122%,118%,93.3%,58.2%,97.9%,152%,184%
"NC1(c2ccc(-c3nc4ccn5c(=O)[nH]nc5c4cc3-c3ccccc3)cc2)CCC1 + Nc1cccc2c1CN(C1CCC(=O)NC1=O)C2=O [lenalidomide] (first compound 0.4 µM, partner dose 1 µM)",104%,59.9%,21.2%,90.4%,140%,79.1%,188%,202%,156%,44.8%
"CC1(C)CCC(c2ccc(Cl)cc2)=C(CN2CCN(c3ccc(C(=O)NS(=O)(=O)c4ccc(N[C@H](CCN5CCOCC5)CSc5ccccc5)c(S(=O)(=O)C(F)(F)F)c4)cc3)CC2)C1 + OCc1c[nH]c2ccccc12 [Indole-3-carbinol] (first compound 0.4 µM, partner dose 0.8 µM)",79.5%,281%,113%,39.6%,180%,80.8%,44.8%,114%,45.8%,141%
"CC1(C)CCC(c2ccc(Cl)cc2)=C(CN2CCN(c3ccc(C(=O)NS(=O)(=O)c4ccc(N[C@H](CCN5CCOCC5)CSc5ccccc5)c(S(=O)(=O)C(F)(F)F)c4)cc3)CC2)C1 + Cn1c(=O)n(-c2ccc(C(C)(C)C#N)cc2)c2c3cc(-c4cnc5ccccc5c4)ccc3ncc21 [NVP-BEZ235] (first compound 0.4 µM, partner dose 0.004 µM)",194%,507%,154%,104%,249%,179%,80.5%,229%,165%,52.6%
"Cn1cnc2c(F)c(Nc3ccc(Br)cc3Cl)c(C(=O)NOCCO)cc21 [selumetinib] + CS(=O)(=O)c1ccc(C(=O)Nc2ccc(Cl)c(-c3ccccn3)c2)c(Cl)c1 [vismodegib] (first compound 0.015 µM, partner dose 1 µM)",85.4%,21.2%,311%,38.3%,191%,98.2%,129%,226%,150%,197%
"CS(=O)(=O)c1ccc(C(=O)Nc2ccc(Cl)c(-c3ccccn3)c2)c(Cl)c1 [vismodegib] + C[C@]1(c2nc3c(C(N)=O)cccc3[nH]2)CCCN1 [Veliparib] (first compound 1 µM, partner dose 1.4 µM)",30.1%,91.8%,114%,98.7%,114%,208%,61.8%,61.6%,57.4%,81.5%
"CS(=O)(=O)c1ccc(C(=O)Nc2ccc(Cl)c(-c3ccccn3)c2)c(Cl)c1 [vismodegib] + NC1(c2ccc(-c3nc4ccn5c(=O)[nH]nc5c4cc3-c3ccccc3)cc2)CCC1 [MK2206] (first compound 1 µM, partner dose 0.4 µM)",63.3%,244%,43.5%,17.4%,245%,41.5%,66.3%,211%,114%,45.6%
"C[C@@H](N)c1ccc(C(=O)Nc2ccnc3[nH]ccc23)cc1 + CC(=O)c1c(C)c2cnc(Nc3ccc(N4CCNCC4)cn3)nc2n(C2CCCC2)c1=O [palbociclib] (first compound 0.4 µM, partner dose 0.04 µM)",59.2%,265%,96.8%,138%,120%,90.6%,68.8%,122%,59.2%,280%
"Cn1sc(=O)n(Cc2ccccc2)c1=O + O=C(O)[C@@H]1[O][Sb](=[O])([O][Sb]2(=[O])[O][C@H]([C@H](O)CO)[C@H](O)[C@H](C(=O)O)[O]2)[O][C@H]([C@H](O)CO)[C@@H]1O [stibogluconate] (first compound 0.4 µM, partner dose 2 µM)",47%,69.3%,131%,93.1%,118%,90.1%,182%,,704%,72.9%
"C[C@@H](N)c1ccc(C(=O)Nc2ccnc3[nH]ccc23)cc1 + CO[C@H]1C[C@@H]2CC[C@@H](C)[C@@](O)(O2)C(=O)C(=O)N2CCCC[C@H]2C(=O)O[C@H]([C@H](C)C[C@@H]2CC[C@@H](OCCO)[C@H](OC)C2)CC(=O)[C@H](C)/C=C(\C)[C@@H](O)[C@@H](OC)C(=O)[C@H](C)C[C@H](C)/C=C/C=C/C=C/1C [everolimus] (first compound 0.4 µM, partner dose 0.02 µM)",75.7%,330%,119%,180%,308%,115%,106%,245%,193%,179%
"CS(=O)(=O)c1ccc(C(=O)Nc2ccc(Cl)c(-c3ccccn3)c2)c(Cl)c1 [vismodegib] + CCCS(=O)(=O)Nc1ccc(F)c(C(=O)c2c[nH]c3ncc(Cl)cc23)c1F [PLX4720] (first compound 1 µM, partner dose 0.08 µM)",76.1%,51%,80%,75.8%,142%,65.1%,67.4%,,93.9%,77.4%
"CC1(C)CCC(c2ccc(Cl)cc2)=C(CN2CCN(c3ccc(C(=O)NS(=O)(=O)c4ccc(N[C@H](CCN5CCOCC5)CSc5ccccc5)c(S(=O)(=O)C(F)(F)F)c4)cc3)CC2)C1 + Nc1nc(F)nc2c1ncn2[C@@H]1O[C@H](CO)[C@@H](O)[C@@H]1O [fludarabine] (first compound 0.4 µM, partner dose 0.2 µM)",153%,449%,197%,82.4%,157%,179%,83.3%,,310%,155%
"C[C@@H](N)c1ccc(C(=O)Nc2ccnc3[nH]ccc23)cc1 + Cn1nnc2c(C(N)=O)ncn2c1=O [temozolomide] (first compound 0.4 µM, partner dose 2 µM)",124%,96.2%,96.1%,166%,154%,84.5%,34.2%,,393%,162%
"C[C@]1(O)C[C@@H](c2nc(-c3ccc4ccc(-c5ccccc5)nc4c3)c3c(N)nccn32)C1 + CC(=O)c1c(C)c2cnc(Nc3ccc(N4CCNCC4)cn3)nc2n(C2CCCC2)c1=O [palbociclib] (first compound 0.4 µM, partner dose 0.04 µM)",128%,94%,147%,46.5%,86.3%,104%,31.9%,,54.8%,53%
"CC1(C)CCC(c2ccc(Cl)cc2)=C(CN2CCN(c3ccc(C(=O)NS(=O)(=O)c4ccc(N[C@H](CCN5CCOCC5)CSc5ccccc5)c(S(=O)(=O)C(F)(F)F)c4)cc3)CC2)C1 + Nc1cccc2c1CN(C1CCC(=O)NC1=O)C2=O [lenalidomide] (first compound 0.4 µM, partner dose 1 µM)",166%,227%,191%,218%,177%,601%,83.8%,,284%,210%
"CC(=O)O[C@@]12CO[C@@H]1C[C@H](O)[C@@]1(C)C(=O)[C@H](O)C3=C(C)[C@@H](OC(=O)[C@H](O)[C@@H](NC(=O)OC(C)(C)C)c4ccccc4)C[C@@](O)([C@@H](OC(=O)c4ccccc4)[C@H]21)C3(C)C [Docetaxel] + Cn1c(=O)n(-c2ccc(C(C)(C)C#N)cc2)c2c3cc(-c4cnc5ccccc5c4)ccc3ncc21 [NVP-BEZ235] (first compound 0.0001 µM, partner dose 0.004 µM)",34.9%,534%,116%,184%,896%,196%,474%,295%,221%,231%
"CC1(C)CCC(c2ccc(Cl)cc2)=C(CN2CCN(c3ccc(C(=O)NS(=O)(=O)c4ccc(N[C@H](CCN5CCOCC5)CSc5ccccc5)c(S(=O)(=O)C(F)(F)F)c4)cc3)CC2)C1 + Cn1nnc2c(C(N)=O)ncn2c1=O [temozolomide] (first compound 0.4 µM, partner dose 2 µM)",200%,459%,120%,149%,238%,596%,120%,,245%,85%

# Whole records as entered above. Order of values: cleaved PARP positive nuclei fraction [1] | cleaved PARP positive nuclei fraction [2] | cleaved PARP positive nuclei fraction [3] | cleaved PARP positive nuclei fraction [4] | cleaved PARP positive nuclei fraction [5] | cleaved PARP positive nuclei fraction [6] | cleaved PARP positive nuclei fraction [7] | cleaved PARP positive nuclei fraction [8] | cleaved PARP positive nuclei fraction [9] | cleaved PARP positive nuclei fraction [10]
# C[C@@H](N)c1ccc(C(=O)Nc2ccnc3[nH]ccc23)cc1 + CC(=O)c1c(C)c2cnc(Nc3ccc(N4CCNCC4)cn3)nc2n(C2CCCC2)c1=O [palbociclib] (first compound 0.4 µM, partner dose 0.04 µM) is entered as 59.2% | 265% | 96.8% | 138% | 120% | 90.6% | 68.8% | 122% | 59.2% | 280%
# CS(=O)(=O)c1ccc(C(=O)Nc2ccc(Cl)c(-c3ccccn3)c2)c(Cl)c1 [vismodegib] + NC1(c2ccc(-c3nc4ccn5c(=O)[nH]nc5c4cc3-c3ccccc3)cc2)CCC1 [MK2206] (first compound 1 µM, partner dose 0.4 µM) is entered as 63.3% | 244% | 43.5% | 17.4% | 245% | 41.5% | 66.3% | 211% | 114% | 45.6%

# From the supplement of paper PMC4604168 (melanoma cell lines)
